Experimental data taken from US9359404B2, “Methods and products for treating preeclampsia and modulating blood pressure” (Scott & White Healthcare, priority 2011, dated 2016).
Entries after “also recorded” stand apart in the source; their conditions may differ. At least one peptide structure holds a part that was inferred or is arguable (an end, a ring closure or a residue). Ends that are not written are not given here.

What was measured:
pregnant mice = test: Systolic blood pressure (tail-cuff plethysmography) in pregnant mice given TLR agonists with or without TPP; type: in vivo, C57BL/6 mice; conditions: day 17
Procedure: Experimental Design: C57BL/6 female mice were bred with male C57BL/6 mice. At day 13 mice were injected IP with vehicle, Poly I:C (SIGMA PO913 50 mg), CLO097 (Invivogen tlrl-C95-5), or R837 (Invivogen tlrl imq) with or without TPP (FRIMAVLAS (SEQ ID NO: 5). Mice were injected a total of 3 times, every other day. At day 18 mice were euthanized, uterus/pups, blood, blood vessels, and spleen were removed.
Blood Pressure: Systolic arterial blood pressure was measured by tail-cuff plethysmography. […] were trained for three days prior to data collection. Animals were warmed to 32° C. and measurements were taken using an IITC Model 59 amplifier (Woodland Hills, Calif.), a system which correlates well with telemetry measurements of systolic blood pressure.
Pregnant mice (P) were treated with one of three TLR agonists to induce a physiological condition which mimics preeclampsia. Poly I:C is a TLR3 agonist and is well established in inducing characteristics of preeclampsia in mice. R837 is a […] activator of TLR7 but not TLR8. Similar to Poly I:C R837 induces characteristics of preeclampsia in mice. CLO097 is a […] that activates TLR7 and TLR8. While CLO097 induces some of the characteristics of preeclampsia the response is somewhat muted. […] The blood pressure of each mouse was measured on day 17 following treatment.

Aortic rings = test: Vasodilation/endothelial function of aortic rings (isometric force transducer); type: in vivo; conditions: vessels of pregnant mice treated with TLR agonist plus TPP, phenylephrine contraction, acetylcholine relaxation
Procedure: Experimental Design: Mice were treated as described in Example 1.
Vasodilation/Endothelial Function: Aortic rings were connected to an isometric force transducer in a custom-made 15-ml organ chamber filled with 37° C. physiological salt solution (119 mM NaCl, 4.7 mM KCl, 25 mM NaHCO3, 1.18 mM KH2PO4, 1.17 mM MgSO4-7H2O, 11.1 mM Dextrose, 2.5 mM CaCl2) with 95% O2-5% CO2. All experiments were performed in the presence of indomethacin […] to inhibit prostacyclin production by cyclooxygenase. Passive tension on the vessels was set at 400 mg based on previously generated length-tension curves, and isometric force generation was recorded continuously with a PowerLab system (AD Instruments, Colorado Springs, Colo.). After a 60-min equilibration period, vessels were contracted with phenylephrine […] and repeated until reproducible contractions were obtained. […] was administered to test the functional integrity of endothelium as measured by a relaxation response. Concentration-response curves were obtained in a half-log, cumulative fashion in response to acetylcholine (1 nM to […]) following contraction to an EC70 concentration of phenylephrine. Relaxation responses were expressed as percent relaxation from phenylephrine-induced contraction. […]

[1] = system: CLIP on the surface of B220 cells; test: Immune cell markers on splenocytes: CLIP on B220 cells; type: in vivo, mice
Procedure: Experimental Design: Mice were treated as described in Example 1. Splenocytes were isolated and stained for CD3, CD4, CD8, CD11b, Ly6G/C, CD25, FoxP3, CD19, B220, CD5, CLIP, and Gamma Delta TCR.
FIG. 9 is a set of graphs that depicts the removal of all CLIP (9A) versus bright CLIP (9B) and FIG. 9C from the surface of B220 cells. […] TLR agonists include CLO097; R837, and Poly I:C. FIG. 9C depicts the percentage of CLIP+cells resulting from Poly I:C stimulation with and without TPP.

PE mice = test: Treatment of established TLR3/TLR7-induced PE in pregnant mice, daily TPP gestational days 15-17; type: in vivo; conditions: TPP gestational days 15-17, started once mice were hypertensive; PR and PPIC mice

Sequence: FRIMAVLAS [TPP, FRIMAVLAS]
- blood pressure (pregnant mice; normal pregnant mice, vehicle plus TPP): does not have an effect on the blood pressure under normal conditions
- blood pressure (pregnant mice; pregnant mice treated with a TLR agonist (R837, CLO097 or Poly I:C) and TPP): exhibited normal blood pressure
- relaxation response (Aortic rings): restore the relaxation response to normal levels
- CLIP+ B cells ([1]; pregnant mice, Poly I:C with TPP): reversed
- removal of bright CLIP from the surface of B220 cells ([1]; with respect to TLR induced levels (CLO097, R837, Poly I:C)): effective in removing bright CLIP
- anti-inflammatory regulatory T cells (PE mice): increasing; also recorded: ameliorated
- endothelial dysfunction (PE mice): significantly reduce; also recorded: ameliorated
- proteinuria (PE mice): significantly reduce; also recorded: ameliorated
- systolic blood pressure (hypertension) (PE mice): significantly reduce; also recorded: ameliorated
- γδ T cells (PE mice): significantly reduce; also recorded: ameliorated
